Results reported in doi:10.1101/2021.09.06.459189.
Results are given in words; binding and its absence hold for the method and conditions named. In cells and extracts the contact can be indirect. These calls come from enrichment with a bait or labelling near it, and not all partners need be listed.

Protein sequences, listed by entry. Tags and fused reporters are not part of them.
UniProt P29311: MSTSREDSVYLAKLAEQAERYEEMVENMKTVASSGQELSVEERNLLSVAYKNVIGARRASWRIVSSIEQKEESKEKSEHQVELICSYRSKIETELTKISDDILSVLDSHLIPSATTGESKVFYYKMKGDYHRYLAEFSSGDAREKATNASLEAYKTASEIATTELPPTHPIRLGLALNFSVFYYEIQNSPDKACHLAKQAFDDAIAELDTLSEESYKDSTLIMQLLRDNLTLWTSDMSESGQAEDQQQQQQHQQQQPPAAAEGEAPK

Molecular target: Bmh1-GFP (S. cerevisiae) (UniProt P29311)
Experiment: affinity purification with mass spectrometry

B1: Pes4 (protein, UniProt P39684 1-611)
chain: MYSISNKKPSILSMVPLNILKNQDLKVKKDQEKKISFNPVVTPIRPDDYHEKTSRSSSSSHSDSPEFLRINNNKSGHKNGKLKSFESKKLVPLFIGDLHETVTEETLKGIFKKYPSFVSAKVCLDSVTKKSLGHGYLNFEDKEEAEKAMEELNYTKVNGKEIRIMPSLRNTTFRKNFGTNVFFSNLPLNNPLLTTRVFYDTFSRYGKILSCKLDSRKDIGFVYFEDEKTARNVIKMYNNTSFFGKKILCGIHFDKEVRSVPNFETQKSRLDAETIIEKEQSLNEKHSKGNDKESKNIYSSSQNSIFIKNLPTITTRDDILNFFSEVGPIKSIYLSNATKVKYLWAFVTYKNSSDSEKAIKRYNNFYFRGKKLLVTRAQDKEERAKFIESQKISTLFLENLSAVCNKEFLKYLCHQENIRPFKIQIDGYDENSSTYSGFIKFRNFEDATRIFNFLNNRLVGGSIVTTSWERQNNAPKYHDGYGMRNIHTSSHPQITPYYQYSHANSLNSPHMRDLSSMNSSTRSLIKNKNFNKKVLETFEKQVRRGIDFMRFPSATRDENVHGIAEYIFDTYWNRDVLILDKFLSLLNSSPYHEGVLQKQIEEAASSLGFKR
In the case of B1, the binding is reported as “binds”.
